# Results of single-concentration screens

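Cell assay of Leishmania donovani living inside macrophages; the read-out is not stated. Tested at 30 µM. Direction is inferred from retests: higher values go with stronger inhibition. About 69,000 compounds were tested under these conditions; 1.5% (about 1,000) showed 50% or more at least once.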

Each number is a percent effect as filed.
How 0% and 100% were set is not recorded. Most values in the screen are low, and negative values occur.
This is an unselected part of the compounds tested.
Two or more numbers in one place are separate tests of the same structure; such repeats can differ widely.

compound	effect
CCOc1cc(CN[C@@H]2COC[C@H]2Cc2cc(C)no2)ccc1O.O=C(O)CC(O)(CC(=O)O)C(=O)O	0.4317
O=C(O)C(F)(F)F.[H][C@@]12CCN(Cc3ccc(OC)cc3)[C@@]1([H])CC(=O)N2CCOC	2.217
C[C@@H]1CN(c2nc(N)nc3c2CCC3)CC[C@@]1(O)C1CCC1	29.44
C[C@]1(O)CN(CCO)CC[C@@H]1Oc1cccc(F)c1	15.32 and 7.201
O=C(O)C(F)(F)F.[H][C@@]12CN(Cc3cnn(C)c3)CCO[C@]1([H])CN(S(=O)(=O)CC)C2	-6.304 and -0.7864
CN(CC1COc2ccccc2O1)C(=O)C1=NN(C)C(=O)CC1 (stereo not shown)	18.48
Cc1ccccc1CN1CCCN(CCN2CCOC2=O)CC1	10.15
CSCC[C@H](N)c1nnc(SCC(=O)Nc2ccc(Br)cc2)o1.Cl	28.73 and 0.1553
O=C(c1cc2c(s1)CCCCC2)N1CCC(c2ncc[nH]2)CC1	6.205
CC(=O)N[C@@H]1CN(Cc2cccs2)C[C@H]1c1ccc(C)o1	15.55
Cc1cc(CN2CCc3nc(N4CCOCC4)nc(O)c3CC2)c(C)s1	20.58
CS(=O)(=O)c1snnc1C1CCCN(Cc2ccncc2)C1 (stereo not shown)	6.096
O=C(c1[nH]nc(C2CC2)c1Cl)N1CCN(C2CC2)C(=O)C1	-4.453
Cc1ccccc1S(=O)(=O)NC(=O)C1(c2ccccc2)CCC1	-6.193
CCC(O)CN1CCN(C(=O)C2(c3ccc(C)c(OC)c3)CC2)CC1 (stereo not shown)	9.901
Cn1nnnc1SCCNC(=O)c1cccc2ccnn12	-2.802
COc1ncccc1NC(=O)N(Cc1ccc(C(N)=O)cc1)C1CC1	22.73
COc1cccc(-c2cc(C(=O)NCCn3nc(C)nc3C)[nH]n2)c1	17.18
[H][C@@]12CS(=O)(=O)C[C@]1([H])N(Cc1nc3ccccc3[nH]1)CCN2C	1.946
CCN1CCN(C[C@@H]2CN(c3ncccc3F)C[C@@H]2CO)CC1	9.683
O=C(O)C(F)(F)F.O=C(O)C(F)(F)F.[H][C@@]12COC[C@H](C(=O)NCc3ccccn3)[C@]1([H])CN(C1CCCC1)C2	38.23
COc1ccc2c(c1)OC1(CCN(Cc3ccc(F)cc3)CC1)CC2=O	28.88
CCC(Nc1cccc(OC)c1)C(=O)NCc1nc(C)cc(=O)[nH]1 (stereo not shown)	2.685
CCCC(=O)N1CCN(CCN(C)C)c2nc(C)ccc2C1.O=C(O)C(F)(F)F.O=C(O)C(F)(F)F	-21.71
Nc1cccc(-c2cccc3ccnn23)n1	15.06
Cn1c(N)nnc1SC1CCCN(c2ccccc2)C1=O (stereo not shown)	24.19
COc1ccc(OC)c(NC(=O)CSc2ccc3nncn3n2)c1	-26.42
COCC(=O)Nc1ccc(N2CCC(OC)CC2)c(C(F)(F)F)c1	14.19
CCCSCC(=O)Nc1ncn(CC(=O)NCc2ccccc2)n1	14.25
Cc1n[nH]c(C)c1CCNC(=O)C1CCCN(Cc2ccco2)C1 (stereo not shown)	9.689
CC[C@H](C)[C@H](N)C(=O)N1CC(=O)c2sc(NC3CCCCC3)nc2C1	7.28 and 11.3
CCS(=O)(=O)N1CCc2c(CN3CCOCC3)cncc2C1.Cl.Cl	6.783
CN(C)c1nc2c(c(N3CCC4(CC3)CNC(=O)C4)n1)CCCC2	25.28
CCN(CC)S(=O)(=O)N1CCc2nc(C3CCNCC3)ncc2C1.Cl	-14.86 and -9.011
Cc1nc(-c2nnc(SCC(=O)O)n2C(C)c2ccccc2)co1 (stereo not shown)	17.5
O=C(c1cc[nH]n1)N1CCc2ncnc(NCc3ccccn3)c2CC1	17.19
CCSCCC(=O)Nc1ncn(Cc2cccnc2)n1	8.299
CC(C)N(C)Cc1nnc2n1CCCN(S(=O)(=O)C1CC1)C2.O=C(O)C(F)(F)F	13.85 and -23.13
CCn1cnnc1CCNC(=O)CCNC(=O)c1ccccc1F	15.31
CN1CC2(CCN(C(=O)c3cccnc3)CC2)c2cccc(F)c21.Cl	17.16
Cn1cnc(S(=O)(=O)NCCN2CCCCCC2=O)c1Cl	-19.19
CC(C)NC(=O)N1CCN(S(=O)(=O)C2CC2)CC2(CC(=O)N(C)C2)C1 (stereo not shown)	-12.85
CCn1cc(CN2CCCC(c3[nH]ncc3S(C)(=O)=O)C2)cn1 (stereo not shown)	11.98
CCc1ccc(CN(C)c2ccc(-c3nc(COC)no3)cn2)nc1	1.116
O=C(O)C(F)(F)F.[H][C@@]12C[C@H](c3nc(C)no3)CN(Cc3ccc(CC)o3)[C@]1([H])CCO2	-6.961
CC(Cc1c(F)cccc1F)NC(=O)CN(CC(N)=O)C(C)C (stereo not shown)	27.85
CC(C)N1CCC(CN2CCn3nc(CNC(=O)N(C)C)cc3C2)CC1	-16.43
O=C(c1cc(-c2ccn(CC3CC3)n2)n2ccccc12)N1CCCO1	27.45
Cn1ccc(CN2CCC(CO)CC2)cc1=O	0.8314
O=C(C1=CCCCC1)N1CCC2(CC1)COC(COc1ccccn1)C2.O=C(O)C(F)(F)F (stereo not shown)	27.1
Cc1cc(C)nc(N2CC=C[C@@H]2C(=O)NCc2ccc3c(c2)OCO3)n1.Cl	42.65
CN(C)S(=O)(=O)c1ccc(CNC(=O)C2CC2)cc1	-3.043
Cc1nccn1-c1ccc(C(C)NCCc2ccccn2)cc1 (stereo not shown)	6.143
O=C(O)C(F)(F)F.O=C(c1ccoc1)N1CCOC2(COCCN(c3ncccn3)C2)C1 (stereo not shown)	12.57
CN(CC(=O)NCc1ccccn1)CC1CCCN1c1cccnn1 (stereo not shown)	6.221
O=C(CCn1c(C(F)(F)F)cc2cccnc21)NC1CCCC1	12.6
O=C(c1ccco1)N1CCCC2(CCN(CCN3CCCC3)C2=O)C1 (stereo not shown)	15.51

For reference, 5 entries once more:

Cc1n[nH]c(C)c1CCNC(=O)C1CCCN(Cc2ccco2)C1 (stereo not shown) gave 9.689%.
CS(=O)(=O)c1snnc1C1CCCN(Cc2ccncc2)C1 (stereo not shown) gave 6.096%.
COCC(=O)Nc1ccc(N2CCC(OC)CC2)c(C(F)(F)F)c1 gave 14.19%.
[H][C@@]12CS(=O)(=O)C[C@]1([H])N(Cc1nc3ccccc3[nH]1)CCN2C gave 1.946%.
CN(C)S(=O)(=O)c1ccc(CNC(=O)C2CC2)cc1 gave -3.043%.

The values are deposited in ChEMBL (CHEMBL3988442, “University of Dundee, Small-Polar-MMV Screening Library” (2021)).